This passage reports binding results from article PMC6770535.

The chains behind the UniProt entries cited, without tags or fusion partners.
UniProt P83916: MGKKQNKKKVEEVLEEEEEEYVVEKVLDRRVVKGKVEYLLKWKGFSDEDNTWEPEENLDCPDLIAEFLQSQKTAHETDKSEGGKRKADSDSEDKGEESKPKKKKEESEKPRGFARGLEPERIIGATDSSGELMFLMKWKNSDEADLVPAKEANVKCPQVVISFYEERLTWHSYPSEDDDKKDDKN
UniProt Q13185: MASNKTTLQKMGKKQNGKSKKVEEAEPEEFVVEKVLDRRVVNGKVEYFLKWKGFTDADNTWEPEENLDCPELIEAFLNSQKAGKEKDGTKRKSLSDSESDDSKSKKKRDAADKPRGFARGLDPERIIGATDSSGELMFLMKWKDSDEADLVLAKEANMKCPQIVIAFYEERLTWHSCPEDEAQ
UniProt Q13263: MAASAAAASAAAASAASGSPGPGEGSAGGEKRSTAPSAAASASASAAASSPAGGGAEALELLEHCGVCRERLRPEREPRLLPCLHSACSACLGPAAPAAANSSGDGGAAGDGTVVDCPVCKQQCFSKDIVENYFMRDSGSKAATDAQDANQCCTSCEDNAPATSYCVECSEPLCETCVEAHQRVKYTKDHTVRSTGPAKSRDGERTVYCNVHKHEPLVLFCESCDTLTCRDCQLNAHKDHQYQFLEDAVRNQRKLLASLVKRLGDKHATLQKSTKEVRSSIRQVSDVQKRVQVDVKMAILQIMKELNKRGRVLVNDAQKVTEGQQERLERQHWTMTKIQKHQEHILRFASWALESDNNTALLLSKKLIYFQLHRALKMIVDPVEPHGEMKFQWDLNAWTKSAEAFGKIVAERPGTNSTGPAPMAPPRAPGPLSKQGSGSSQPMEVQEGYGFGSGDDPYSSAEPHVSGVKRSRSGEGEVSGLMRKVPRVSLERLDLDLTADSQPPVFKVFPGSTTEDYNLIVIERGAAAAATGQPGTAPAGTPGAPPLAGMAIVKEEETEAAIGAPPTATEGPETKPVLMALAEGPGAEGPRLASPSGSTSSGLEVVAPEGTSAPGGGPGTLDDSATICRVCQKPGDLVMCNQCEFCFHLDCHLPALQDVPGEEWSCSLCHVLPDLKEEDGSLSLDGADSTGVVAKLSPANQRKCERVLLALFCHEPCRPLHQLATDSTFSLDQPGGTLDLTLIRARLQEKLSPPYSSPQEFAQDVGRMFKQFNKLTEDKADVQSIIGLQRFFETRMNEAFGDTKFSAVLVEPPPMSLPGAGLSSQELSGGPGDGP

Results are given in words; binding and its absence hold for the method and conditions named. Binding seen in cells or lysates may run through a third protein. Some binding calls cover weakened binding; strength is not graded here.

For one assay, the target named is mCherry-HP1β (UniProt P83916). Nature of the assay: FRET or BRET; FLIM-FRET in HeLa cells co-transfected with a GFP-HP1 construct (donor) and mCherry-HP1β (acceptor); ten nuclei for each experimental event.
For assay [1], the target named is HP1γ (heterochromatin protein 1 gamma), endogenous in HeLa cells (human (endogenous in HeLa)) (UniProt Q13185). Nature of the assay: co-IP; endogenous proteins of HeLa lysate (Pierce IP Lysis Buffer), Catch and Release v2.0 spin columns, overnight at 4 °C, antibodies to HP1α, HP1β or HP1γ, western blot; cells untreated, treated with SAHA (15 µM) or irradiated with γ-rays (5 Gy), harvested after 2 h. A general note: In western blotting, separated proteins are transferred to a membrane and probed.

Assay [2] addresses HP1β (heterochromatin protein 1 beta), endogenous in HeLa cells (human (endogenous in HeLa)) (UniProt P83916). Described as above.

Take “GFP-tagged HP1γ (from UniProt Q13185 1-183)”: the binding entry with mCherry-HP1β was “binds weakly”.

Take “HP1β (heterochromatin protein 1 beta), endogenous in HeLa cells (from UniProt P83916 1-185)”: the binding result in assay [1] is reported as “binds”.

For “KRAB-associated protein 1 (KAP1), endogenous in HeLa cells (from UniProt Q13263 1-835)”, the binding entry in assay [2] is given as “binds”.
